Data as given in publication PMC7442798.
Results are given in words; binding and its absence hold for the method and conditions named. In cells and extracts the contact can be indirect. Binding calls can cover weak binding; strength is not graded here.

The chains behind the UniProt entries cited, without tags or fusion partners. Where a name states a change or a piece, a line headed by the entry shows the natural chain unless it says otherwise.
UniProt Q96G74: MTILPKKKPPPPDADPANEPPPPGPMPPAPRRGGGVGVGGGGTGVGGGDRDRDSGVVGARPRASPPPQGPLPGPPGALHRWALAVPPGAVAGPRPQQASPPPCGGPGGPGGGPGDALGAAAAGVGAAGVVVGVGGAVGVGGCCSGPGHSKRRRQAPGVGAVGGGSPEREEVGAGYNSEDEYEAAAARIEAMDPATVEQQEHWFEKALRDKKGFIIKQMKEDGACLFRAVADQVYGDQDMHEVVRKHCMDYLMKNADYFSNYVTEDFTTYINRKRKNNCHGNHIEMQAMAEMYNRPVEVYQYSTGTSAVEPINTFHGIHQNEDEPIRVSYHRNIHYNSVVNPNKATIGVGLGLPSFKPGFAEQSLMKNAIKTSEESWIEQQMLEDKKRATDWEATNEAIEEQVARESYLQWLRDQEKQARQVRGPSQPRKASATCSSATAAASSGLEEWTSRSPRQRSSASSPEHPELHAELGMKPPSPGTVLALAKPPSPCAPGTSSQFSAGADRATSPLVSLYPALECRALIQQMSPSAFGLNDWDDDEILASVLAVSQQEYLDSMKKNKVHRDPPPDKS
UniProt Q14258: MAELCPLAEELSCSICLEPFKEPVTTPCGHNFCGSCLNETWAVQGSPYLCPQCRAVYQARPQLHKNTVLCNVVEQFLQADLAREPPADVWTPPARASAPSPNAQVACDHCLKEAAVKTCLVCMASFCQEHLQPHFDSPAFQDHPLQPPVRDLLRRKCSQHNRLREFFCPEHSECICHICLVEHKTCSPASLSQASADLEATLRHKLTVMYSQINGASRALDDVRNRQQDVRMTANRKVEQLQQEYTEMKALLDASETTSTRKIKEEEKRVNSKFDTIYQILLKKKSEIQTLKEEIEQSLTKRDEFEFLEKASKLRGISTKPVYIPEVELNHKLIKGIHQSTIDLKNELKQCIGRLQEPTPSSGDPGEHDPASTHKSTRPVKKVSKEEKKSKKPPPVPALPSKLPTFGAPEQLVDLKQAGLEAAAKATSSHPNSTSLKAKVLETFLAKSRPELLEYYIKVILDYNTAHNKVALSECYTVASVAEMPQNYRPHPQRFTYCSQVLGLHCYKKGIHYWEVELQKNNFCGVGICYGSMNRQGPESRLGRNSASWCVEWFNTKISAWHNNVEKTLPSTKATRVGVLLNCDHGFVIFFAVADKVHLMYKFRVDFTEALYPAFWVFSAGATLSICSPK

Target: Flag-tagged OTUD5 with the UIM domain deleted (human) (UniProt Q96G74)
Assay: co-IP; Hep3B cells transfected with Flag-OTUD5-WT or Flag-OTUD5-ΔUIM; TRIM25 coprecipitated with the Flag-tagged protein

- binding: binds
Substance: TRIM25 E3 ubiquitin ligase (from UniProt Q14258 1-630)
